Reference: the supplement of paper PMC3334620
Over roughly 33,000 sequences, “E-score (-0.5 to 0.5)” has its median near -0.015; the highest 2% begin near 0.3. The list shows a part of the results.

target: T1, Abf1 (UniProt P14164); assay: PBM E-score (8-mer binding enrichment) (E-score (-0.5 to 0.5)); higher = stronger / more preferred TF binding; conditions: protein concentration: 200 nM; construct: GST-full length
T1 sequence: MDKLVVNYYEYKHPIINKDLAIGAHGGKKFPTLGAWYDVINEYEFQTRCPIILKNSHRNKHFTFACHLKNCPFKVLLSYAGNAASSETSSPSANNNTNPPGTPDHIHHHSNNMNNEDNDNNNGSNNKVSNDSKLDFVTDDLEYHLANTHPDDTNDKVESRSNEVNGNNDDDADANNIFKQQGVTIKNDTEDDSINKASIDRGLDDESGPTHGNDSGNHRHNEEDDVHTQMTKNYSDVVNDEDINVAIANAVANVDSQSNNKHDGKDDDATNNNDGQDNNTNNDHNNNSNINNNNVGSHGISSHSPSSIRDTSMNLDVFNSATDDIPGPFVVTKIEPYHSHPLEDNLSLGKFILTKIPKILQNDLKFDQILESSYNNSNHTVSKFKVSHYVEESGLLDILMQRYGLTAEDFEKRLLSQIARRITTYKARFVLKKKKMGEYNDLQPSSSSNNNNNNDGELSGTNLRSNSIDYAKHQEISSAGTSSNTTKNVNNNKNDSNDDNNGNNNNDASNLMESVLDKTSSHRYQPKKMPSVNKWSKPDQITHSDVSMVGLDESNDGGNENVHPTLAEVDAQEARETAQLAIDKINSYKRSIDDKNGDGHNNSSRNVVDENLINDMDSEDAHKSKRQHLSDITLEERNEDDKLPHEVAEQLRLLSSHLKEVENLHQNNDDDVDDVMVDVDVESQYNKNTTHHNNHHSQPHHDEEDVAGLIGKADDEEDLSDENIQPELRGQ
Method in brief: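 The E-score, a modified Wilcoxon-Mann-Whitney statistic, was computed by the Universal PBM Analysis Suite for every ungapped eight-base word pooled with its reverse complement. Scans behind it were normalised with masliner after bound GST-tagged yeast transcription factors were detected with fluorescent anti-GST. The proteins, at about 100-200 nM, had been applied to universal all-10-mer Agilent arrays made double-stranded by primer extension.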

Row | Sequence | PBM E-score
1 | AAGGACTC | -0.0574
2 | GCAATTAA | 0.055
3 | AAGGAGAG | -0.184
4 | CTATACTA | 0.0524
5 | AGACCAAA | -0.0337
6 | CAAACATA | -0.24
7 | ATGTTCGG | -0.0954
8 | ACGTGATC | 0.261
9 | CTACAAAC | 0.0458
10 | GACCCCCA | -0.406
11 | CCTCAACG | -0.067
12 | ATCATTCC | 0.25
13 | CTTCGTAC | 0.414
14 | ACCTAACT | 0.139
15 | AGGTGAAC | -0.158
16 | GATGTGGA | 0.127
17 | GAATCCGA | 0.0367
18 | AACTTTTG | -0.0828
19 | GGCTATAC | -0.0369
20 | CAGCATTA | 0.147
21 | AAGCACAA | 0.0452
22 | CTAGCCAG | -0.011
23 | AATCTCGC | 0.136
24 | CAAGGAAA | -0.198
25 | GGTGAAGA | 0.0145

Row | Sequence | PBM E-score
26 | ACTAGCGG | -0.244
27 | ATCGGACG | 0.0252
28 | ATGCTCCC | 0.00623
29 | GTTTTCCA | -0.0188
30 | TAGAGTCA | -0.225
31 | GACGAGAC | 0.233
32 | CGCTCTAA | 0.108
33 | AATGTCAT | 0.306
34 | AAAAGACT | -0.162
35 | TATGTTAA | 0.0944
36 | GGCCCTGA | -0.15
37 | CGCGACTA | 0.134
38 | CAGCCGGG | -0.16
39 | GTGACGGA | 0.149
40 | ATACAGCA | 0.0274
41 | TACTTGGA | 0.136
42 | CATATATG | -0.107
43 | CGCAGGAC | -0.0446
44 | CAAACTCA | 0.0162
45 | ACCGTCAG | 0.0392
46 | CGCCAATC | -0.235
47 | TAGGCTGA | -0.141
48 | TAGGGCCA | -0.224
49 | AAAAGTTG | 0.0813
50 | ATTAGTTC | 0.0653

Row | Sequence | PBM E-score
51 | ACCTTTCC | 0.106
52 | CCCACTCG | -0.0264
53 | CGAGGGGC | -0.102
54 | AGCGGGCC | -0.0217
55 | CGCCCTCC | -0.307
56 | GCCAGGGC | -0.238
57 | AAGGACTA | -0.187
58 | CTCTGCCC | -0.12
59 | TACGGTGA | 0.267
60 | CACCAGGA | -0.184
61 | CTCAGCAG | -0.185
62 | CGTTCACA | 0.151
63 | CCGAACAA | -0.0373
64 | AAGGTTGA | 0.0275
65 | AATCTAGT | 0.0821
66 | AGGGGGAA | -0.373
67 | TCAGAAAA | -0.087
68 | AAGGTCAC | 0.187
69 | CCTGCTGA | 0.0985
70 | CCCCTCTA | -0.244
71 | AACTACAG | -0.197
72 | GAGCAAGC | -0.0234
73 | ACTTCTTC | 0.109
74 | GACCCTAA | 0.012
75 | GAGTTTAA | -0.0806

Row | Sequence | PBM E-score
76 | CGTATTAC | 0.17
77 | CGCTTGAC | -0.0445
78 | CGGATGAC | 0.0966
79 | CTCTGAAC | -0.209
80 | ATTCAGGG | -0.117
81 | CGCATTGA | -0.116
82 | CCCAGTCG | -0.168
83 | AAACGTAC | 0.175
84 | ATGCTACG | 0.0618
85 | TCTCGTAA | 0.306
86 | GTATTCAC | 0.101
87 | CCGTGCTA | 0.124
88 | ACTCAGCC | -0.0628
89 | ATACGTAG | 0.216
90 | GTTCTGCA | 0.0226
91 | AATTTCTG | -0.0905
92 | AAATTTAA | 0.104
93 | GAGCATAA | 0.0686
94 | CAAGCGCA | 0.2
95 | CTTCTGAC | -0.0739
96 | ACGAGCTG | -0.0108
97 | CCATAGGC | -0.255
98 | TGCTCCAA | -0.0406
99 | ATCACAGG | -0.0296
100 | ACATGAAC | -0.0565

Nos. 4 to 53, reprinted for reference:
Row | Sequence | PBM E-score
4 | CTATACTA | 0.0524
5 | AGACCAAA | -0.0337
6 | CAAACATA | -0.24
7 | ATGTTCGG | -0.0954
8 | ACGTGATC | 0.261
9 | CTACAAAC | 0.0458
10 | GACCCCCA | -0.406
11 | CCTCAACG | -0.067
12 | ATCATTCC | 0.25
13 | CTTCGTAC | 0.414
14 | ACCTAACT | 0.139
15 | AGGTGAAC | -0.158
16 | GATGTGGA | 0.127
17 | GAATCCGA | 0.0367
18 | AACTTTTG | -0.0828
19 | GGCTATAC | -0.0369
20 | CAGCATTA | 0.147
21 | AAGCACAA | 0.0452
22 | CTAGCCAG | -0.011
23 | AATCTCGC | 0.136
24 | CAAGGAAA | -0.198
25 | GGTGAAGA | 0.0145
26 | ACTAGCGG | -0.244
27 | ATCGGACG | 0.0252
28 | ATGCTCCC | 0.00623
29 | GTTTTCCA | -0.0188
30 | TAGAGTCA | -0.225
31 | GACGAGAC | 0.233
32 | CGCTCTAA | 0.108
33 | AATGTCAT | 0.306
34 | AAAAGACT | -0.162
35 | TATGTTAA | 0.0944
36 | GGCCCTGA | -0.15
37 | CGCGACTA | 0.134
38 | CAGCCGGG | -0.16
39 | GTGACGGA | 0.149
40 | ATACAGCA | 0.0274
41 | TACTTGGA | 0.136
42 | CATATATG | -0.107
43 | CGCAGGAC | -0.0446
44 | CAAACTCA | 0.0162
45 | ACCGTCAG | 0.0392
46 | CGCCAATC | -0.235
47 | TAGGCTGA | -0.141
48 | TAGGGCCA | -0.224
49 | AAAAGTTG | 0.0813
50 | ATTAGTTC | 0.0653
51 | ACCTTTCC | 0.106
52 | CCCACTCG | -0.0264
53 | CGAGGGGC | -0.102

More results:

Row | Sequence | PBM E-score
101 | TAAAGACA | -0.183
102 | CCACCAAC | 0.0464
103 | CAGGCTGA | -0.188
104 | GAATGCTC | -0.0235
105 | CGCCTCTC | -0.306
106 | ATGACAAT | 0.344
107 | CTCATAAC | -0.0385
108 | ATGAATGC | -0.115
109 | TCGCTACA | -0.0917
110 | ACCGGCGT | -0.0929
111 | CGCAAAAC | -0.0968
112 | ACTGCACT | -0.0247
113 | ACGCCTTC | -0.234
114 | AGACCTCT | -0.235
115 | ATAGGTAA | 0.0844
116 | CACGAATG | 0.18
117 | CTTGAGAC | -0.114
118 | CATGACCG | 0.0551
119 | AGTTAATA | 0.154
120 | AGACAGCT | -0.191
121 | CGAATCGC | -0.105
122 | AGGGTGAT | 0.335
123 | CTCACCGC | 0.0255
124 | GCACCCGC | -0.155
125 | TCCTTCCA | -0.07

Row | Sequence | PBM E-score
126 | CATTATTC | 0.0906
127 | ATCCTGCG | -0.0659
128 | ATAGGTCG | 0.0721
129 | ACACAAGG | -0.135
130 | GGGAAGAA | -0.136
131 | ACTGCACA | -0.0157
132 | CATCGTCG | 0.231
133 | ATGCCCAT | -0.205
134 | CTTTGAGC | -0.128
135 | AGTCGCCA | -0.21
136 | CTCTTAAG | -0.0657
137 | ATCCCCGG | -0.21
138 | CGAAGACC | -0.0723
139 | AAGTGCCC | -0.141
140 | CTATGGGA | -0.0561
141 | GACGATCC | 0.179
142 | ACGCGGCG | -0.0292
143 | ACCTTTCA | 0.0936
144 | TGACGTCA | 0.314
145 | AAACCATG | -0.0371
146 | GTCCTAGA | 0.188
147 | CTGCTGAC | -0.0193
148 | CTAATCTA | -0.0706
149 | GAACACGC | -0.0987
150 | AGAACAGC | -0.0106

Row | Sequence | PBM E-score
151 | ATCATAGC | 0.152
152 | GAACTACC | -0.19
153 | CTGATTGC | -0.12
154 | GATACAGC | -0.195
155 | ACGCTCAC | 0.157
156 | GTCAGATA | -0.052
157 | CTCGGAGA | -0.027
158 | ATATCTAA | 0.131
159 | AAATCGGG | 0.0447
160 | TCTTAAGA | 0.165
161 | ATATTGTC | 0.172
162 | GCCCAACC | -0.09
163 | CAGACACG | -0.0904
164 | CTCCAATC | -0.0529
165 | ATGCTAAG | -0.119
166 | AACGTGTG | 0.0261
167 | AAGAGCCT | -0.216
168 | AGTAGCAT | -0.0673
169 | AAACTTGA | -0.168
170 | ACGCACTC | -0.113
171 | AGTTGCAA | -0.093
172 | AAGACTCA | -0.212
